# Measurements taken from patent EP4831176A1, “BICYCLIC FUSED HETEROAROMATIC RING DERIVATIVE, AND PHARMACEUTICAL COMPOSITION AND USE THEREOF” (dated 2026).
# Sequences of proteins named here, by UniProt entry; tags and fusion partners are left off.
# UniProt O75530, whole entry: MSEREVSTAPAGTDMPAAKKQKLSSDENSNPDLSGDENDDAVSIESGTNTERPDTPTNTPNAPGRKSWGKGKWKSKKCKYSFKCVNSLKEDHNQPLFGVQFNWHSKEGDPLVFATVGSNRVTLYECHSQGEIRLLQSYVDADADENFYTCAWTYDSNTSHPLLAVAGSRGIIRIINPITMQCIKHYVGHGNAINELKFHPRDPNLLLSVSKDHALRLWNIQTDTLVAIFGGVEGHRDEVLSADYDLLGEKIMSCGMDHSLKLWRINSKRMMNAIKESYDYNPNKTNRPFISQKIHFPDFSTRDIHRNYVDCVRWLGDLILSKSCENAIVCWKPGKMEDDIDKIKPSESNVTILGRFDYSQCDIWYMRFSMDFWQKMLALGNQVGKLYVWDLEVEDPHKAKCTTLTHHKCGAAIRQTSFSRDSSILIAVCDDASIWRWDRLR
# Biological target: EED protein (Homo sapiens, UniProt O75530)
# Assay: EED protein degradation in Karpas-422 cells, In-cell western (ICW)
# Conditions: 18 hours incubation
row,Dmax [%],Structure (SMILES)
1,61,Cn1nc(C2CCC(=O)NC2=O)c2ccc(N3CCC(CN4CCC(c5ccc(-c6cnc(NCc7c(F)ccc8c7CCO8)n7cnc(P(C)(C)=O)c67)cc5)CC4)CC3)cc21 (stereo not shown)
2,69,Cn1nc(C2CCC(=O)NC2=O)c2ccc(N3CCC(CN4CCC(n5cc(-c6cnc(NCc7c(F)ccc8c7CCO8)n7cnc(Cl)c67)nn5)CC4)CC3)cc21 (stereo not shown)
3,66,Cn1nc(C2CCC(=O)NC2=O)c2ccc(N3CCN(C4CCN(Cc5ncc(-c6cnc(NCc7c(F)ccc8c7CCO8)n7cnc(Cl)c67)cn5)CC4(F)F)CC3)cc21 (stereo not shown)
4,67,Cc1nc(-c2cnc(NCc3c(F)ccc4c3CCO4)n3cnc(Cl)c23)ccc1C1CCN(CC2CCN(c3ccc4c(C5CCC(=O)NC5=O)nn(C)c4c3)CC2)CC1 (stereo not shown)
5,76,Cc1nc(CCC(=O)NCCOc2ccc(OCC(=O)N[C@H](C(=O)N3C[C@H](O)C[C@H]3C(=O)NCc3ccc(-c4scnc4C)cc3)C(C)(C)C)cc2)ccc1-c1cnc(NCc2c(F)ccc3c2CCO3)n2cnnc12
6,71,Cc1nc(C2CCN(CC3CCN(c4ccc5c(C6CCC(=O)NC6=O)nn(C)c5c4)CC3)CC2)ccc1-c1cnc(NCc2c(F)ccc3c2CCO3)n2cnc(F)c12 (stereo not shown)
7,55,Cn1c(=O)n(C2CCC(=O)NC2=O)c2ccc(N3CCC(CN4CCC(c5ccc(-c6cnc(NCc7c(F)ccc8c7CCO8)n7cnc(S(C)(=O)=O)c67)cc5)CC4)CC3)cc21 (stereo not shown)
8,56,Cn1nc(C2CCN(CC3CCN(c4cc5c(cc4F)c(C4CCC(=O)NC4=O)nn5C)CC3)CC2)cc1-c1cnc(NCc2c(F)ccc3c2CCO3)n2cnc(Cl)c12 (stereo not shown)
9,59,Cn1c(=O)n(C2CCC(=O)NC2=O)c2ccc(N3CCC(CN4CCC(c5ccc(-c6cnc(NCc7c(F)ccc8c7CCO8)n7cnc(Cl)c67)cc5)CC4)CC3)cc21 (stereo not shown)
10,66,Cn1nc(C2CCC(=O)NC2=O)c2cc(F)c(N3CCC(CN4CCC(c5ccc(-c6cnc(NCc7c(F)ccc8c7CCO8)n7cnc(Cl)c67)nn5)CC4)CC3)cc21 (stereo not shown)
11,55,Cn1c(=O)n(C2CCC(=O)NC2=O)c2ccc(N3CCC(CN4CCC(c5ccc(-c6cnc(NCc7c(F)ccc8c7CCO8)n7cc(C#N)nc67)cc5)CC4)CC3)cc21 (stereo not shown)
12,63,Cc1nc(C2CCN(CC3CCN(c4ccc5c(C6CCC(=O)NC6=O)nn(C)c5c4)CC3)CC2)ccc1-c1cnc(NCc2c(F)ccc3c2CCO3)n2cnc(Cl)c12 (stereo not shown)
13,63,Cc1nc(C(=O)NC2CCN(CC3CCN(c4ccc5c(C6CCC(=O)NC6=O)nn(C)c5c4)CC3)CC2)ccc1-c1cnc(NCc2c(F)ccc3c2CCO3)n2cnc(Cl)c12 (stereo not shown)

# Structures were worked out from names or drawings and are uncertain.
